Here are results for one molecule from patent publication US20220193271A1 (REGENTS OF THE UNIVERSITY OF MICHIGAN, published 2022).

These are yes or no findings as the source states them, for the method shown. For some assays here: In cells and extracts the contact can be indirect. Some entries that bind do so weakly or less than the wild type.

For test [1], the target named is purified mouse cMet-ECD protein (50622-M08H, Sino Biological) (mouse) (UniProt P16056). The test is described as follows: pull-down, peptide immobilized on EHS beads, Western blot. (A western blot detects proteins with antibodies after separation by electrophoresis.)
The target in test [2] is extracellular domain of purified cMet protein, cMet-ECD (10692-H08H, Sino Biological Inc.) (UniProt P08581). Kind of test: phage display biopanning against purified cMet-ECD, enriched after 4 rounds.

QQTNWSL [unlabeled QQT* (QQTNWSL)]: the binding entry in test [1] and in test [2] was “binds” in each case.
